# Reference: ChEMBL document CHEMBL6103541, “Ringing medicinal chemistry: The importance of 3-membered rings in drug discovery” (Bioorg Med Chem, 2024)
# Legend:
# Escherichia coli = assay: Antibacterial activity against Escherichia coli assessed as reduction in bacterial growth by broth microdilution method; type: functional
# Pseudomonas aeruginosa = assay: Antibacterial activity against Pseudomonas aeruginosa ATCC 15442 assessed as reduction in bacterial cell growth incubated for 18 hrs by two fold serial microdilution method; type: functional
smiles,measurement,setting,value
O=C(O)c1cn(C2CC2)c2cc(N3CCNCC3)c(F)cc2c1=O [CIPROFLOXACIN],MIC,Escherichia coli,0.08 µg/mL
same,MIC,Pseudomonas aeruginosa,0.08 µg/mL
